Experimental data: PubChem BioAssay AID1259415 (National Center for Advancing Translational Sciences (NCATS), 2018)
Hit rate of the full screen: of about 410,000 compounds, about 18,000 (4.4%) were called active. The inconclusive results got no clear call from the source; some entries with a clear call stand among them for comparison. No stated cut-off is given here; in the data, active means activity change below about -60%; inconclusive means no clear call, values can overlap the other calls; inactive means above about -39%.

test: qHTS Assay for inhibitors of the human cytomegalovirus (HCMV); conditions: HFF cells, HCMV-luciferase reporter, 72 h; at 57.5 µM; stronger effect = lower value
Procedure, shortened: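 Steps: HFFs plated, 16 h 37C; compounds added; HCMV-luciferase added to MOI 1 PFU/cell; 72 h 37C; OneGlo reagent, 5 min room temperature; luminescence read, normalized to controls.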
On the % scale 0 is the no-effect control and ±100 the full control effect.

Row | SMILES | activity change, negative = inhibition
1 | Fc1ccc(-n2cc(-c3ccccc3)c3c(NN4CCOCC4)ncnc32)cc1 | inconclusive: -53.1%
2 | O=C(NNC(=O)C1CC=CCC1)c1ccccc1O (stereo unspecified) | inactive: 63.4%
3 | O=C(Nc1cccc(S(=O)(=O)C(F)F)c1)c1ccc(S(=O)(=O)N2CCCC2)cc1 | inconclusive: -45.7%
4 | O=[N+]([O-])c1ccccc1CSc1nnc2ccccn12 | inactive: 53.4%
5 | CN(CC(=O)N1CCCC1)S(=O)(=O)c1cc(Cl)ccc1Cl | inconclusive: -55.9%
6 | COC(=O)c1cc(CSC(=N)N)ccc1OCCC(C)C | inactive: -36.7%
7 | CCOC(=O)c1sc(NC(=O)c2cc(-c3ccccc3)nc3ccccc23)c(C#N)c1C | active: -95%
8 | COc1ccccc1CNC(=S)NCCc1ccccc1 | inconclusive: -47.8%
9 | O=C(Cn1cnc2ccccc2c1=O)c1ccc(Cl)cc1 | inconclusive: -40.9%
10 | Cc1c(C(=O)N2CCCC2)oc2c1-c1nn(CC(=O)NCCCOC(C)C)cc1CC2 | inconclusive: -48.7%
11 | CCOC(=O)c1cnc(SCC(=O)Nc2sc(C)c(C)c2C#N)nc1N | active: -64.4%
12 | O=c1c(-c2ccccc2)nc2ccccc2n1C(CCc1ccccc1)c1nc2ccccc2[nH]1 (stereo unspecified) | active: -66.6%
13 | O=C(O)COc1ccc(/C=C2/SC(=S)N(Cc3ccccc3)C2=O)cc1 | inactive: -9.45%
14 | O=S(=O)(NCc1ccc(F)cc1)c1ccc(-c2cnc(C3CC3)o2)cc1 | inconclusive: -45.2%
15 | COc1ccc(-c2nc(CSCC(=O)N3CCN(c4cccc(C)c4C)CC3)c(C)o2)cc1OC | active: -93.3%
16 | Cc1cc(NC(=O)CCC(=O)N(c2cccnc2)C(C(=O)NC2CCCC2)c2ccccc2F)no1 (stereo unspecified) | inconclusive: -40.2%
17 | O=C(Nc1cccc(S(=O)(=O)N2CCOCC2)c1)C1CC1 | inconclusive: -54.4%
18 | CC(=O)N(Cc1ccc(F)cc1)c1cccc(C)c1C | inconclusive: -43.5%
19 | O=C1CCC(=O)N1c1ccc(S(=O)(=O)Nc2cccc(Br)c2)cc1 | inconclusive: -57.5%

Exported as labelled records: entries from further up
CC(=O)N(Cc1ccc(F)cc1)c1cccc(C)c1C
  activity change, negative = inhibition: inconclusive: -43.5%
O=C1CCC(=O)N1c1ccc(S(=O)(=O)Nc2cccc(Br)c2)cc1
  activity change, negative = inhibition: inconclusive: -57.5%

More compounds follow:

Row | SMILES | activity change, negative = inhibition
20 | O=C(OCc1ccccc1)N1CCN(C(c2ccnc3ccccc23)c2nnnn2-c2ccc3c(c2)OCCO3)CC1 (stereo unspecified) | inactive: -18.3%
21 | CCOc1ccccc1NC(=O)c1ccc(S(=O)(=O)N(C)c2ccccc2)cc1 | inconclusive: -44.5%
22 | COc1cccc(OC)c1C(=O)N1CCOCC1 | inactive: -4.54%
23 | CC(C)=CCc1c(O)cc2oc3c(CC=C(C)C)c(O)c(O)c(CC=C(C)C)c3c(=O)c2c1O | active: -101%
24 | O=C(NCCN1CCOCC1)C1CC(=O)N(c2ccc(Cl)cc2)C1 (stereo unspecified) | inconclusive: -46.7%
25 | O=C(Nc1nccs1)C1CC=CCC1 (stereo unspecified) | active: -69.3%
26 | Cc1cc(C)cc(NC(=O)Cn2cc(S(=O)(=O)NC(C)(C)C)c(S(=O)(=O)NC(C)(C)C)c2)c1 | inconclusive: -44.3%
27 | Cc1ccc(N2CC(C(=O)Nc3cc(Cl)ccc3-n3cncn3)CC2=O)cc1 (stereo unspecified) | inactive: 4.52%
28 | O=c1cc2c(nn1Cc1ccccc1)-c1ccccc1CC2 | active: -100%
29 | O=C(c1cccc(S(=O)(=O)Nc2ccc(F)cc2)c1)N1CCOCC1 | inactive: 0%
30 | O=C1N(Cc2ccccc2)c2ccc(Cl)cc2C1(O)c1c[nH]c2ccccc12 (stereo unspecified) | inconclusive: -40.5%
31 | Cc1cnc(NC(=O)CSc2nnc3ncccn23)s1 | inconclusive: -43.7%
32 | CN1CCN(/N=C/c2ccc(-c3ccc([N+](=O)[O-])cc3Cl)o2)CC1 | inconclusive: -48.2%
33 | CCCn1c(SCC(=O)N2CCc3ccccc32)nnc1-c1ccco1 | inactive: -18.3%
34 | C=CCn1c(SC(CCO)C(=O)NCc2ccco2)nc2sc3c(c2c1=O)CCC3 (stereo unspecified) | inconclusive: -52.6%
35 | CCCCn1c(=O)n(C)c(=O)c2c(C(F)(F)F)cc(-c3ccncc3)nc21 | inconclusive: -49.7%
36 | Nc1c(C(=O)OCC2CCCO2)c2nc3ccccc3nc2n1C1CCCCC1 (stereo unspecified) | inactive: -31%
37 | S=C(NCCCN1CCOCC1)N1CCN(c2ccccc2)CC1 | inconclusive: -45.3%
38 | Cc1ccc(C)c(-n2c(C)cc(/C=N/NC(=O)c3c(C)nc4cc(C)ccn34)c2C)c1 | inconclusive: -41%

Row | SMILES | activity change, negative = inhibition
39 | O=S(=O)(Nc1cccc(Br)c1)c1cccc2nsnc12 | inactive: 32.4%
40 | O=C(CS(=O)(=O)c1ccccc1)Nc1nc(-c2ccc(F)cc2)cs1 | inconclusive: -54.8%
41 | CC(=O)c1ccccc1N(C(=O)c1ccco1)C(C(=O)NC1CCCC1)c1ccc(C)cc1 (stereo unspecified) | inconclusive: -43.8%
42 | Cc1nc(SCc2ccc(F)cc2)c2oc3ccccc3c2n1 | inactive: -16.1%
43 | O=C(Nc1nc2ccc3ccccc3c2s1)c1ccc(N2CCCCC2)c([N+](=O)[O-])c1 | inconclusive: -58.1%
44 | CN(C)c1ccc(C(=O)C(O)c2ccccc2Cl)cc1 (stereo unspecified) | inconclusive: -51.7%
45 | CC(C)c1ccc(NC(=O)CN2C(=O)COc3ccc(S(=O)(=O)N4CCCCC4)cc32)cc1 | inconclusive: -49.8%
46 | Cn1cccc1-c1nc2ccc(NC(=O)c3cccs3)cc2[nH]1 | inactive: 9.56%
47 | CC1CCCCC12NC(=O)N(CC(=O)N1CCN(C(=O)c3cccs3)CC1)C2=O (stereo unspecified) | inactive: -18.9%
48 | CCCC(=O)NC(c1ccc(OC)c(OC)c1)c1cc(Cl)c2cccnc2c1O (stereo unspecified) | active: -98.8%
49 | Cc1cc(N2CCOCC2)c2c(N)c(Br)cc(C)c2n1 | active: -81.9%
50 | COc1ccc(Cl)cc1N1CC(c2nc3ccccc3[nH]2)CC1=O (stereo unspecified) | active: -98.9%
51 | O=C(NCCn1ccc2ccccc21)c1cccc([N+](=O)[O-])c1 | active: -80.2%
52 | CNC(=S)N/N=C/c1c(C)cccc1Cl | inconclusive: -48.2%
53 | Cc1nn2c(nc(N3CCCCC3)c3ccccc32)c1C=O | inconclusive: -42.9%
54 | O=C1C2CCCN2C(c2ccc(F)cc2)N1c1ccc(Cl)cc1 (stereo unspecified) | active: -77.1%
55 | Cn1c(=O)c2c(nc(N/N=C/c3c(O)n(C4CCCCC4)c(=S)[nH]c3=O)n2C)n(C)c1=O | inconclusive: -42.4%
56 | CCOC(=O)NNC(=O)C12CC3CC(CC(C3)C1)C2 | inconclusive: -44.4%

Of the compounds above, these have a thiophene ring, fused or not.
Row | SMILES | activity change, negative = inhibition
7 | CCOC(=O)c1sc(NC(=O)c2cc(-c3ccccc3)nc3ccccc23)c(C#N)c1C | active: -95%
11 | CCOC(=O)c1cnc(SCC(=O)Nc2sc(C)c(C)c2C#N)nc1N | active: -64.4%
34 | C=CCn1c(SC(CCO)C(=O)NCc2ccco2)nc2sc3c(c2c1=O)CCC3 (stereo unspecified) | inconclusive: -52.6%
46 | Cn1cccc1-c1nc2ccc(NC(=O)c3cccs3)cc2[nH]1 | inactive: 9.56%
47 | CC1CCCCC12NC(=O)N(CC(=O)N1CCN(C(=O)c3cccs3)CC1)C2=O (stereo unspecified) | inactive: -18.9%
